The results in this text go back to PubChem BioAssay AID493014 (National Center for Advancing Translational Sciences (NCATS), 2011).

This is one part of the list. These are further read-outs of the screen, such as a control signal, another cell line or another target. No call is given for them. The list favours compounds with an active or inconclusive main result. The note in brackets gives the kind of curve behind each potency; many fits are weak.

In general, AC50 refers to the concentration at which the activity in the assay is half-maximal.

This test in a line: qHTS Assay to Find Inhibitors of Chronic Active B-Cell Receptor Signaling. The settings on record: ABC-DLBCL IkBa-CBG/CBR reporter, luminescence ratio (green luciferase fused to IkBa over red control in TMD8 lymphoma cells), 4 h. Put shortly: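 Doxycycline induced both beetle luciferases in TMD8 lymphoma cells; IKK-driven degradation limits the IkappaBalpha-fused green signal, while red luminescence normalises for cell number and nonspecific effects. Compounds tested up to 46 uM, 4 hrs.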
For orientation: qHTS replaces the single test concentration by a dilution series.

The mark [1] stands for this setting: measured here: CBR red luminescence, cell number.
[2] abbreviates: measured here: IkBa-CBG green luminescence.

`CCCCn1c(N)c(N(CCOC)C(=O)COC(=O)COc2cc(C)c(Cl)cc2C(C)C)c(=O)[nH]c1=O`: the half-maximal activity concentration (AC50) under setting [1] was 18.4 µM [falling, single point]. As for `CCOC(=O)C1CCN(c2cc(C)nc3cc(-c4cccc(F)c4)nn23)CC1`, the AC50 under setting [1] is 11.6 µM [rising, partial curve, poor fit].

For the molecule `COc1ccc(-c2cn(-c3ccc(C)c(C)c3)c(=S)[nH]2)cc1OC`, under setting [1], the AC50 is 3.55 µM [falling, full curve, poor fit]. For `O=C(Nn1cnc2ccccc2c1=O)c1ccc(F)cc1Cl`, the AC50 under setting [1] is 1.58 µM [rising, partial curve]. With `Cc1ccc2oc(=O)c(/C=C(\O)c3ccco3)nc2c1`, under setting [1], the AC50 was 7.08 µM [falling, single point]. Take `O=C(Nc1ccccc1F)c1cc2c(s1)-c1ccccc1S(=O)(=O)C2`: under setting [1], the AC50 was 2.82 µM [falling, full curve]. Still for that read-out and setting: the same measure for `CC(=O)c1nc2ccccc2n1S(=O)(=O)c1ccc(C)cc1`: 7.08 µM [falling, partial curve, poor fit].

As to `CCOC(=O)c1nc(C)n(-c2ccc(Cl)cc2)n1`, the AC50 under setting [1] was 29.1 µM [rising, single point]. In the case of `Cc1nn(Cc2ccc(Cl)cc2)c(C)c1NC(=O)c1noc2c1CCCCC2`, under setting [1], the AC50 is 18.4 µM [falling, single point].

Turning to `Cc1cccc(NC(=O)COc2coc(CN3CCc4ccccc4C3)cc2=O)c1`, under setting [1], the AC50 was 29.1 µM [falling, single point]. With `CCn1c2ccccc2c2cc(CN3CCN(Cc4cc(OC)ccc4O)CC3)ccc21`, the AC50 under setting [1] was 17.8 µM [falling, single point].

As for `O=C(Nc1ccc(N2CCOCC2)cc1)c1cccc(S(=O)(=O)N2CCCC2)c1`, the AC50 under setting [1] is 5.17 µM [falling, full curve, poor fit]. Turning to `O=c1[nH][nH]c(-c2ccccc2O)c1C(C[N+](=O)[O-])c1ccc(Br)cc1` (stereo not drawn), the AC50 under setting [1] is 7.31 µM [falling, partial curve].

Regarding `O=C(NC1CCCCC1)C1CC(O)CN1C(=O)OCc1ccccc1` (stereo not drawn), the AC50 under setting [1] was 32.6 µM [rising, single point]. The same measure, in the same setting: the same measure for `CCOc1ccc(-n2c(N)c(-c3nc4ccccc4n3C)c3nc4ccccc4nc32)cc1`: 32.6 µM [falling, single point]. Same read-out and setting: the figure for `Cc1sc(NC(=O)Cn2[nH]c(=O)c3ccccc3c2=O)nc1-c1ccccc1` is 6.51 µM [rising, single point]. In the case of `C=CCOC(=O)/C(=C/c1cccnc1)NC(=O)c1ccccc1`, the AC50 under setting [1] was 35.5 µM [rising, single point]. Take `O=C(O)CCCC(=O)OCCc1cc2ccccc2c(=O)o1`: the AC50 under setting [1] is 3.66 µM [falling, full curve]. In the case of `O=C(CCl)Nc1cccc(S(=O)(=O)NC2=NCCC2)c1`, the AC50 under setting [2] was 12.6 µM [falling, partial curve, poor fit]. Regarding `N#CC1=C(N)NC(=S)C(C(N)=O)C1c1ccc(Cl)cc1Cl` (stereo not drawn), the concentration at half-maximal activity (AC50) under setting [1] is 35.5 µM [falling, single point]. In the case of `CCOC(=O)c1sc(NC(=O)CSc2n[nH]c(-c3ccccc3)n2)c(C#N)c1C`, the AC50 under setting [1] is 25.9 µM [falling, single point]. For `Nn1cnnc1N/N=C/c1ccccc1C(F)(F)F`, the AC50 under setting [1] is 6.31 µM [rising, single point]. For `Clc1ccc(-c2nnc(-c3ccco3)o2)cc1`, the AC50 under setting [1] is 3.16 µM [rising, partial curve, poor fit]. Take `COc1cccc(-c2cc(C(=O)N/N=C/c3ccco3)c3ccccc3n2)c1`: the AC50 under setting [1] is 1.41 µM [rising, single point].

In the case of `Oc1cccc2ccc(/C=C/c3c(F)cccc3Cl)nc12`, the AC50 under setting [1] is 15.8 µM [rising, partial curve] and the AC50 under setting [2] was 25.1 µM [falling, single point]. For the molecule `COc1ccc(S(=O)(=O)N2CCOCC2)c(Cl)c1Cl`, under setting [2], the AC50 is 7.31 µM [falling, partial curve, poor fit]. On to `O=C(NCCc1cn2ccsc2n1)c1cccs1`, for which the AC50 under setting [1] was 29.1 µM [falling, single point]. As for `O=C(c1ccco1)N(CCC(c1ccccc1)c1ccco1)Cc1ccc(F)cc1` (stereo not drawn), under setting [1], the concentration at half-maximal activity (AC50) is 35.5 µM [falling, single point]. Take `CCOC(=O)C1CCCN(c2c(NCCN(C)Cc3ccccc3)c(=O)c2=O)C1` (stereo not drawn): the concentration at half-maximal activity (AC50) under setting [1] is 18.4 µM [falling, single point]. Take `O=C(Nc1ccccc1)Nc1cc(Cl)cc(Cl)c1`: the concentration at half-maximal activity (AC50) under setting [1] is 1.84 µM [falling, partial curve, poor fit].

As for `CC1=CCn2c(=O)c3ccccc3c(=O)n2C1`, the AC50 under setting [1] was 6.51 µM [rising, single point]. On the same count and under the same terms, the same measure for `COC1(OC)N=C(N)C2(C#N)C(c3ccc4c(c3)OCO4)C12C#N` (stereo not drawn): 0.282 µM [falling, full curve, poor fit]; for `COc1ccccc1OCCNC(=O)c1cccc(S(=O)(=O)NCc2ccccc2)c1`: 0.082 µM [falling, full curve, poor fit]; for `CCOc1nsc(OCC)n1`: 1.26 µM [rising, full curve]. Take `Cc1ccccc1-n1c(=O)n(CCc2ccccc2)c(=O)c2[nH]cnc21`: the AC50 under setting [1] was 0.112 µM [falling, full curve, poor fit]. `COC(=O)/C=C/C1=CN(Cc2ccccc2)CCC1=O`: the AC50 under setting [1] is 3.66 µM [rising, single point]. On to `COc1ccc(C)cc1-n1c(SCC(=O)NCC2CCCO2)nc2c([nH]c3ccccc32)c1=O` (stereo not drawn), for which, under setting [1], the AC50 is 20 µM [falling, single point]. In the case of `Oc1c(N=Nc2ccccn2)ccc2ccccc12`, the AC50 under setting [1] was 35.5 µM [falling, single point]. On to `O=C(Nc1nc(=S)ss1)c1ccc(Cl)cc1Cl`, for which the AC50 under setting [1] is 0.0891 µM [rising, full curve, poor fit]. `Cc1c(NC(=O)c2ccc([N+](=O)[O-])o2)cccc1-c1nc2ncccc2o1`: the AC50 under setting [1] was 11.2 µM [falling, partial curve, poor fit].

Take `O=C(NC(NC(=S)Nc1ccc(Cl)cc1Cl)C(Cl)(Cl)Cl)c1cccc([N+](=O)[O-])c1` (stereo not drawn): under setting [1], the AC50 is 15.8 µM [falling, partial curve]. The same measure, in the same setting: the figure for `Oc1ccc(Nc2nc3ccccc3nc2Nc2ccc(O)cc2)cc1` is 4.11 µM [falling, full curve].
